For one molecule, binding results are on record in paper PMC5897363.

These are yes or no findings as the source states them, for the method shown. In cells and extracts the contact can be indirect. Some binding calls cover weakened binding; strength is not graded here.

The target of the test is T1, IL-23p19 (mouse (endogenous in epidermis)) (UniProt Q9EQ14).
T1 sequence: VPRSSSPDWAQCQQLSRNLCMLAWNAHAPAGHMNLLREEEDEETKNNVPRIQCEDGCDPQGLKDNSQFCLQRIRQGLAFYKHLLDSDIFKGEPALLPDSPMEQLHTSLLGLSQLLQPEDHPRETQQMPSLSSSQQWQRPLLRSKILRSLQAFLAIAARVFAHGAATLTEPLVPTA
The experiment in a line: co-IP; epidermal cells of 7-8-week-old control and N-WASP ko mice lysed in RIPA buffer, lysate cleaned with Protein A agarose; precipitated with rat anti-mouse IL-23p19 and Protein A agarose; blots for IL-23p19 and IL-12p40.

B1: IL-12p40 (protein, UniProt P43432 23-335)
chain: MWELEKDVYVVEVDWTPDAPGETVNLTCDTPEEDDITWTSDQRHGVIGSGKTLTITVKEFLDAGQYTCHKGGETLSHSHLLLHKKENGIWSTEILKNFKNKTFLKCEAPNYSGRFTCSWLVQRNMDLKFNIKSSSSSPDSRAVTCGMASLSAEKVTLDQRDYEKYSVSCQEDVTCPTAEETLPIELALEARQQNKYENYSTSFFIRDIIKPDPPKNLQMKPLKNSQVEVSWEYPDSWSTPHSYFSLKFFVRIQRKKEKMKETEEGCNQKGAFLVEKTSTEVQCKGGNVCVQAQDRYYNSSCSKWACVPCRVRS
B1: the binding entry was “binds”.
